Patent publication US20200317791A1
Results are given in words; binding and its absence hold for the method and conditions named. For some of these results: Binding can be weak; no strength is given.

Assays:
B13,Bw4_B*13:01 (human) = assay: LABScreen beads
B13,Bw4_B*13:02 (human) = assay: LABScreen beads
B18,Bw6_B*18:01 (human) = assay: LABScreen beads
B27,Bw6_B*27:08 (human) = assay: LABScreen beads
B38,Bw4_B*38:01 (human) = assay: LABScreen beads
B39,Bw6_B*39:01 (human) = assay: LABScreen beads
B42,Bw6_B*42:01 (human) = assay: LABScreen beads
B44,Bw4_B*44:02 (human) = assay: LABScreen beads
B44,Bw4_B*44:03 (human) = assay: LABScreen beads
B45,Bw6_B*45:01 (human) = assay: LABScreen beads
B47,Bw4_B*47:01 (human) = assay: LABScreen beads
B48,Bw6_B*48:01 (human) = assay: LABScreen beads
B49,Bw4_B*49:01 (human) = assay: LABScreen beads
B50,Bw6_B*50:01 (human) = assay: LABScreen beads
B51,Bw4_B*51:01 (human) = assay: LABScreen beads
B51,Bw4_B*51:02 (human) = assay: LABScreen beads
B52,Bw4_B*52:01 (human) = assay: LABScreen beads
B53,Bw4_B*53:01 (human) = assay: LABScreen beads
B55,Bw6_B*55:01 (human) = assay: LABScreen beads
B56,Bw6_B*56:01 (human) = assay: LABScreen beads
B59,Bw4_B*59:01 (human) = assay: LABScreen beads
B60,Bw6_B*40:01 (human) = assay: LABScreen beads
B61,Bw6_B*40:02 (human) = assay: LABScreen beads
B62,Bw6_B*15:01 (human) = assay: LABScreen beads
B67,Bw6_B*67:01 (human) = assay: LABScreen beads
B71,Bw6_B*15:10 (human) = assay: LABScreen beads
B72,Bw6_B*15:03 (human) = assay: LABScreen beads
B75,Bw6_B*15:02 (human) = assay: LABScreen beads
B76,Bw6_B*15:12 (human) = assay: LABScreen beads
B77,Bw4_B*15:13 (human) = assay: LABScreen beads
B81,Bw6_B*81:01 (human) = assay: LABScreen beads
B82,Bw6_B*82:01 (human) = assay: LABScreen beads
B57,Bw4_B*57:03 (human) = assay: LABScreen beads, 10 µg/ml antibody
B58,Bw4_B*58:01 (human) = assay: LABScreen beads, 10 µg/ml antibody
B61,Bw6_B*40:06 (human) = assay: LABScreen beads, 10 µg/ml antibody
B63,Bw4_B*15:16 (human) = assay: LABScreen beads, 10 µg/ml antibody
B64,Bw6_B*14:01 (human) = assay: LABScreen beads, 10 µg/ml antibody
B65,Bw6_B*14:02 (human) = assay: LABScreen beads, 10 µg/ml antibody
B75,Bw6_B*15:11 (human) = assay: LABScreen beads, 10 µg/ml antibody
B8,Bw6_B*08:01 (human) = assay: LABScreen beads, 10 µg/ml antibody
Cw10_C*03:02 (human) = assay: LABScreen beads, 10 µg/ml antibody
Cw10_C*03:04 (human) = assay: LABScreen beads, 10 µg/ml antibody
Cw12_C*12:03 (human) = assay: LABScreen beads, 10 µg/ml antibody
Cw14_C*14:02 (human) = assay: LABScreen beads, 10 µg/ml antibody
Cw15_C*15:02 (human) = assay: LABScreen beads, 10 µg/ml antibody
Cw16_C*16:01 (human) = assay: LABScreen beads, 10 µg/ml antibody
Cw17_C*17:01 (human) = assay: LABScreen beads, 10 µg/ml antibody
Cw18_C*18:02 (human) = assay: LABScreen beads, 10 µg/ml antibody
Cw1_C*01:02 (human) = assay: LABScreen beads, 10 µg/ml antibody
Cw2_C*02:02 (human) = assay: LABScreen beads, 10 µg/ml antibody
Cw4_C*04:01 (human) = assay: LABScreen beads, 10 µg/ml antibody
Cw5_C*05:01 (human) = assay: LABScreen beads, 10 µg/ml antibody
[1] = biological target: Cw7_C*07:02 (human), C*07:0; assay: LABScreen beads, 10 µg/ml antibody
Cw8_C*08:01 (human) = assay: LABScreen beads, 10 µg/ml antibody
Cw9_C*03:03 (human) = assay: LABScreen beads, 10 µg/ml antibody

binding (B13,Bw4_B*13:01 (human)): no binding (tested: 10 µg/ml) | binding (B13,Bw4_B*13:02 (human)): no binding (tested: 10 µg/ml) | binding (B18,Bw6_B*18:01 (human)): no binding (tested: 10 µg/ml) | binding (B27,Bw6_B*27:08 (human)): no binding (tested: 10 µg/ml) | binding (B38,Bw4_B*38:01 (human)): no binding (tested: 10 µg/ml) | binding (B39,Bw6_B*39:01 (human)): no binding (tested: 10 µg/ml) | binding (B42,Bw6_B*42:01 (human)): no binding (tested: 10 µg/ml) | binding (B44,Bw4_B*44:02 (human)): no binding (tested: 10 µg/ml) | binding (B44,Bw4_B*44:03 (human)): no binding (tested: 10 µg/ml) | binding (B45,Bw6_B*45:01 (human)): no binding (tested: 10 µg/ml) | binding (B47,Bw4_B*47:01 (human)): no binding (tested: 10 µg/ml) | binding (B48,Bw6_B*48:01 (human)): no binding (tested: 10 µg/ml) | binding (B49,Bw4_B*49:01 (human)): no binding (tested: 10 µg/ml) | binding (B50,Bw6_B*50:01 (human)): no binding (tested: 10 µg/ml) | binding (B51,Bw4_B*51:01 (human)): no binding (tested: 10 µg/ml) | binding (B51,Bw4_B*51:02 (human)): no binding (tested: 10 µg/ml) | binding (B52,Bw4_B*52:01 (human)): no binding (tested: 10 µg/ml) | binding (B53,Bw4_B*53:01 (human)): no binding (tested: 10 µg/ml) | binding (B55,Bw6_B*55:01 (human)): no binding (tested: 10 µg/ml) | binding (B56,Bw6_B*56:01 (human)): no binding (tested: 10 µg/ml) | binding (B59,Bw4_B*59:01 (human)): no binding (tested: 10 µg/ml) | binding (B60,Bw6_B*40:01 (human)): no binding (tested: 10 µg/ml) | binding (B61,Bw6_B*40:02 (human)): no binding (tested: 10 µg/ml) | binding (B62,Bw6_B*15:01 (human)): no binding (tested: 10 µg/ml) | binding (B67,Bw6_B*67:01 (human)): no binding (tested: 10 µg/ml) | binding (B71,Bw6_B*15:10 (human)): no binding (tested: 10 µg/ml) | binding (B72,Bw6_B*15:03 (human)): no binding (tested: 10 µg/ml) | binding (B75,Bw6_B*15:02 (human)): no binding (tested: 10 µg/ml) | binding (B76,Bw6_B*15:12 (human)): no binding (tested: 10 µg/ml) | binding (B77,Bw4_B*15:13 (human)): no binding (tested: 10 µg/ml) | binding (B81,Bw6_B*81:01 (human)): no binding (tested: 10 µg/ml) | binding (B82,Bw6_B*82:01 (human)): no binding (tested: 10 µg/ml) | binding (B57,Bw4_B*57:03 (human)): binds | binding (B58,Bw4_B*58:01 (human)): binds | binding (B61,Bw6_B*40:06 (human)): binds | binding (B63,Bw4_B*15:16 (human)): binds | binding (B64,Bw6_B*14:01 (human)): binds | binding (B65,Bw6_B*14:02 (human)): binds | binding (B75,Bw6_B*15:11 (human)): binds | binding (B8,Bw6_B*08:01 (human)): binds | binding (Cw10_C*03:02 (human)): binds | binding (Cw10_C*03:04 (human)): binds | binding (Cw12_C*12:03 (human)): binds | binding (Cw14_C*14:02 (human)): binds | binding (Cw15_C*15:02 (human)): binds | binding (Cw16_C*16:01 (human)): binds | binding (Cw17_C*17:01 (human)): binds | binding (Cw18_C*18:02 (human)): binds | binding (Cw1_C*01:02 (human)): binds | binding (Cw2_C*02:02 (human)): binds | binding (Cw4_C*04:01 (human)): binds | binding (Cw5_C*05:01 (human)): binds | binding [1]: binds | binding (Cw8_C*08:01 (human)): binds | binding (Cw9_C*03:03 (human)): binds
B1: CW6B230 (antibody, V domains shown)
VH: QVQLQESGPGLVKPSETLSLTCTVSGNSISNYYWSWIRQPAGKGLEWIGRIYITGNTNYNPSLKSRVTMSLDTSKNQFSLKLSSVTAADTAVYYCARLSGIDAFDIWGQGTMVTVSS
VL: DIQMTQSPSTLSASVGDRVTFTCQASQDITKYLNWYQQKPGKAPKLLIYDASNLETGVPSRFSGSGSGTDFTFTISSLQPEDFATYYCQQYDDLPITFGQGTRLEIK
